Experimental data published in the supplement of paper PMC10849652.
Some of the results follow.

The chains behind the UniProt entries cited, without tags or fusion partners. Where a name states a change or a piece, a line headed by the entry shows the natural chain unless it says otherwise.
UniProt Q96DW6: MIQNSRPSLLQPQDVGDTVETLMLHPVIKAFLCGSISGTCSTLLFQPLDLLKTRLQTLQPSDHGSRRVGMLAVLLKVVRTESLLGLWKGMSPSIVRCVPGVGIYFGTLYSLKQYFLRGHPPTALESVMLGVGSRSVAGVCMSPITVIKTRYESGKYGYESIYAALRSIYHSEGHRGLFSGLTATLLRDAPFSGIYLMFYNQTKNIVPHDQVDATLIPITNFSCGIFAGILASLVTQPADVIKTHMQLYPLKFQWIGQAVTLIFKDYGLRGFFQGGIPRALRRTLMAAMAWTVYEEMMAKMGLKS
UniProt Q96CQ1: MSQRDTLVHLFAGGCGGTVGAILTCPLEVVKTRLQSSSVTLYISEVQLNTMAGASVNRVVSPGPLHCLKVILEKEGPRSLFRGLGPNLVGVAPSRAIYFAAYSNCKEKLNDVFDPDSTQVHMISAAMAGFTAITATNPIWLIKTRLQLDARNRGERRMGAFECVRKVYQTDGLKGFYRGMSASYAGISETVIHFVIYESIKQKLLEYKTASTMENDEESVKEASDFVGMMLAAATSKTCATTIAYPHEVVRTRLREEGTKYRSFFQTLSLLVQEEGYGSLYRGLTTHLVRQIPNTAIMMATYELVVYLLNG
UniProt O60779: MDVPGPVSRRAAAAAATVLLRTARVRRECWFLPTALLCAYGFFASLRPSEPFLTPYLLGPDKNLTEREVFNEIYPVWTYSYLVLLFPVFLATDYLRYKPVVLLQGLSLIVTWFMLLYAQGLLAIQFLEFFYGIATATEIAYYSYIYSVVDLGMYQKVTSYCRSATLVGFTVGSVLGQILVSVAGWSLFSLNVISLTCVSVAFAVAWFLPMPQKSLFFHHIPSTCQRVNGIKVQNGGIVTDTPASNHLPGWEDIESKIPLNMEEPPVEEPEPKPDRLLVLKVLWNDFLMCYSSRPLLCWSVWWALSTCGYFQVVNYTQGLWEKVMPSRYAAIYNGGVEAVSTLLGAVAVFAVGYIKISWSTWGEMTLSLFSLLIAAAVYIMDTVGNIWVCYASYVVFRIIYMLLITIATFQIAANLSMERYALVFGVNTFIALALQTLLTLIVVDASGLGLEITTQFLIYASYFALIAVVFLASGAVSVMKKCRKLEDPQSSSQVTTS
UniProt Q9NRA2: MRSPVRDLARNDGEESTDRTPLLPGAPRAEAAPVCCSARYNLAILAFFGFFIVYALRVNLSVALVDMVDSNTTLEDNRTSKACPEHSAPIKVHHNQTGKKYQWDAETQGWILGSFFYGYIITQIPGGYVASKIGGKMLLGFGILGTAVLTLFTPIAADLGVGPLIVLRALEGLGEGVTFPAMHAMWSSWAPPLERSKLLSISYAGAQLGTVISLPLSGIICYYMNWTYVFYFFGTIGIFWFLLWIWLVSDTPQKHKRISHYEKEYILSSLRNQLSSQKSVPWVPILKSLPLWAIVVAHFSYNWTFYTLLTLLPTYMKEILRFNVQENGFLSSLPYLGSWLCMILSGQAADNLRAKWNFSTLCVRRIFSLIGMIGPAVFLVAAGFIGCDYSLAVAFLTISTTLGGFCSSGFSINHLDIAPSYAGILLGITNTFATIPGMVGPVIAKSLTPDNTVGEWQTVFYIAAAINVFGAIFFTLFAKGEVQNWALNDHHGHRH
UniProt P14672: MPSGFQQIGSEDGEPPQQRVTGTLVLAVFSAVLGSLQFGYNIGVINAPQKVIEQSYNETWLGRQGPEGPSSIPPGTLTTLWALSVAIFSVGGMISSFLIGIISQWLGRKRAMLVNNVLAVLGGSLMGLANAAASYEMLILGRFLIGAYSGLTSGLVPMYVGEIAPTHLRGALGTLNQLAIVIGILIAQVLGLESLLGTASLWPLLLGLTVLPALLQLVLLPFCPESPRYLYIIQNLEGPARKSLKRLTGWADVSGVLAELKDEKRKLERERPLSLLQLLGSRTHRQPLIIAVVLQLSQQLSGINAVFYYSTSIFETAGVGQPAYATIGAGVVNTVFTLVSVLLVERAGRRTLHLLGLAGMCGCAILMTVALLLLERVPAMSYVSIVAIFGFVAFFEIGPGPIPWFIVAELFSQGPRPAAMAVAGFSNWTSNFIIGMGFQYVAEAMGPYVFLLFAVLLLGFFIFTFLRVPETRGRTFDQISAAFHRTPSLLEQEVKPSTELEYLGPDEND
UniProt Q9BV35: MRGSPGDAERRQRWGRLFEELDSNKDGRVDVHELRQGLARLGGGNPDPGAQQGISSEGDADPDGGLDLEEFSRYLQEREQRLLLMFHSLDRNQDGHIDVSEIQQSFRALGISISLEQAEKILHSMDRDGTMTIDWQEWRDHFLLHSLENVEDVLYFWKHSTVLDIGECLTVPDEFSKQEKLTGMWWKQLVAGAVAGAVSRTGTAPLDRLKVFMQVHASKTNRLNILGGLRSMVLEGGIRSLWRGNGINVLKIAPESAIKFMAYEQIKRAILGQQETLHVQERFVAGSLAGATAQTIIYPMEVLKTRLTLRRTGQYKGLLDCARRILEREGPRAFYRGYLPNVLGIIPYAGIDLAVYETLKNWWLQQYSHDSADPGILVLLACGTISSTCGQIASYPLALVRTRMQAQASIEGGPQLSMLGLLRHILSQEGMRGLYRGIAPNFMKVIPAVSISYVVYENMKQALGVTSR
UniProt Q96QD8: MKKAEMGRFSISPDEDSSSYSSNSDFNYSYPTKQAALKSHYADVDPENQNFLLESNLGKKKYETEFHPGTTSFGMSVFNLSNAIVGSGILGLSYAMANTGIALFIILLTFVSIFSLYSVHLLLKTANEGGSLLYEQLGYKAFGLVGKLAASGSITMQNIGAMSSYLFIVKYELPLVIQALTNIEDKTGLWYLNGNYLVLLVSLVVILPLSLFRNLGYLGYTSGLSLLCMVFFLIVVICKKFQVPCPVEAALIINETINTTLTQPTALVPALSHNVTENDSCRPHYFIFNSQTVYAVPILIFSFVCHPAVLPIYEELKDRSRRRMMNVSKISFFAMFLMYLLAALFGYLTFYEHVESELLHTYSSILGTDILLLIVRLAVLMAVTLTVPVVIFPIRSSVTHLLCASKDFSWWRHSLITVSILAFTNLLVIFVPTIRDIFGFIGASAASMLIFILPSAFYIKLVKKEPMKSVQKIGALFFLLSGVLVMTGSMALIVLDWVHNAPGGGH
UniProt P78382: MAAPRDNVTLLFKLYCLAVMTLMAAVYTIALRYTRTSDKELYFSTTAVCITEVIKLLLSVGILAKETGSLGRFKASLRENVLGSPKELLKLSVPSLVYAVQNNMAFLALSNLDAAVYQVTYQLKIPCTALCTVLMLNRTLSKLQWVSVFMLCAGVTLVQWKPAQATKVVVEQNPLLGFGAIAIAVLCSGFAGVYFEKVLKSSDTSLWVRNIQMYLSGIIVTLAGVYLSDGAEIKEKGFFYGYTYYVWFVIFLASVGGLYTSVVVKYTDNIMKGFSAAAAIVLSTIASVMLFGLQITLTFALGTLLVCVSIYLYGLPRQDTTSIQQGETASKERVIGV
UniProt Q70HW3: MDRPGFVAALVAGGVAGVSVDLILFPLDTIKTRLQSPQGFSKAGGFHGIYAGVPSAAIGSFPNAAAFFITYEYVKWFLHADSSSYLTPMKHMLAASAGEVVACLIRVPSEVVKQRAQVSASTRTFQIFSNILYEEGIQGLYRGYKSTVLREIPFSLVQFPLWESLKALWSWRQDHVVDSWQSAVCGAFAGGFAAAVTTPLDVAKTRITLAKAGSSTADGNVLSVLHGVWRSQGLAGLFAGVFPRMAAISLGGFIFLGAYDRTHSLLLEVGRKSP
UniProt P48067: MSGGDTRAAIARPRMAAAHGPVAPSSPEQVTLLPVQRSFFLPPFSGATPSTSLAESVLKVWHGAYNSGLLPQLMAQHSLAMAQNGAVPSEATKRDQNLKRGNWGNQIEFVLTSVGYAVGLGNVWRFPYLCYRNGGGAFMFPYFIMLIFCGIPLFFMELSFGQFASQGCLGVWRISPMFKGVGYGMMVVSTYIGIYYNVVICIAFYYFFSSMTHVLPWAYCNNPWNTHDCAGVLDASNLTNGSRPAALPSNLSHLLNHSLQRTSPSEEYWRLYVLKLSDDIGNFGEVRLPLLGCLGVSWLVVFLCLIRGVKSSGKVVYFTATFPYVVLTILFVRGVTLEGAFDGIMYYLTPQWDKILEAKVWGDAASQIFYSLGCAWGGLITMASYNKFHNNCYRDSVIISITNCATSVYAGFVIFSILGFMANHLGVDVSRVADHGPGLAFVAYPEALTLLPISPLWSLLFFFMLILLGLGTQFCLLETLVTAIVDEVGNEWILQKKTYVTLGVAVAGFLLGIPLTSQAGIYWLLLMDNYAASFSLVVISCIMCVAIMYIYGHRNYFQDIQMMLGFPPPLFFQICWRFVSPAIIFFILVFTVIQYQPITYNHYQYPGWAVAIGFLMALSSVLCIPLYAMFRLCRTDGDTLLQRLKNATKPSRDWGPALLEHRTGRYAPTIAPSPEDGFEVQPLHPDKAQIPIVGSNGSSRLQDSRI
UniProt Q6PCB7: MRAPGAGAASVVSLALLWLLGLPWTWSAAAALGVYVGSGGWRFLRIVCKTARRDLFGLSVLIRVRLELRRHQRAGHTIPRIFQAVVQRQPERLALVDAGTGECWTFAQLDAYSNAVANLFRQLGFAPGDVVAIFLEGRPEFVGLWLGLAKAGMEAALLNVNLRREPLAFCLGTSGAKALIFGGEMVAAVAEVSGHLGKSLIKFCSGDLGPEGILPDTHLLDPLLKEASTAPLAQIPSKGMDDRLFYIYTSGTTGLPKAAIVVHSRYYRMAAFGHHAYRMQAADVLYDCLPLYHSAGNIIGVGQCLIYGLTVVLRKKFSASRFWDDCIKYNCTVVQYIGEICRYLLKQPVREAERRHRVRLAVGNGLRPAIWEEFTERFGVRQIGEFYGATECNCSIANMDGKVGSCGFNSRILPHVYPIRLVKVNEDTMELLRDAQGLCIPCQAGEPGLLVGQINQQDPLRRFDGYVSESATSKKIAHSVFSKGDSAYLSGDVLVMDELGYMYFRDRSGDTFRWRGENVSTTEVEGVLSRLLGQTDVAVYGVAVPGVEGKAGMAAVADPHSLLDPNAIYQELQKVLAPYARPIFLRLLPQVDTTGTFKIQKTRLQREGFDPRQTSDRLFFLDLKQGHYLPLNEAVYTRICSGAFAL
UniProt Q8IWA5: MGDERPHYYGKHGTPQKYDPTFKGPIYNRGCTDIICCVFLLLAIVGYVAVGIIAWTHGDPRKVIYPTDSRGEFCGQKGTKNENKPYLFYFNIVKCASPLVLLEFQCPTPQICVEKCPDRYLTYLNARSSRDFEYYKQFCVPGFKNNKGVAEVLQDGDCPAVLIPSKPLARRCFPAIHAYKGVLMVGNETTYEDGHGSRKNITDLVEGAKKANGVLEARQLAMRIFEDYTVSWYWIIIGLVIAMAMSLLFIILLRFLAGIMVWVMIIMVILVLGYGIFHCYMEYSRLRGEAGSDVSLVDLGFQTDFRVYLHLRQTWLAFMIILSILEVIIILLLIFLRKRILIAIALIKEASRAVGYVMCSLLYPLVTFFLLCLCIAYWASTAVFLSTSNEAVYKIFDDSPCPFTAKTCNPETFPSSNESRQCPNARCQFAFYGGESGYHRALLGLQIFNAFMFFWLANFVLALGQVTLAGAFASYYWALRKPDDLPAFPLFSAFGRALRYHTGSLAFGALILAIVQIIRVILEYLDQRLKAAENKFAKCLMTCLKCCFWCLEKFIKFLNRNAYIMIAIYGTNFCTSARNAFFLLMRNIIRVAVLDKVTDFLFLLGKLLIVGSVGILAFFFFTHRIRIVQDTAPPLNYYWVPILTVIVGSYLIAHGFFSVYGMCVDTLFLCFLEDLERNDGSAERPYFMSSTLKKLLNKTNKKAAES
UniProt Q5SVS4: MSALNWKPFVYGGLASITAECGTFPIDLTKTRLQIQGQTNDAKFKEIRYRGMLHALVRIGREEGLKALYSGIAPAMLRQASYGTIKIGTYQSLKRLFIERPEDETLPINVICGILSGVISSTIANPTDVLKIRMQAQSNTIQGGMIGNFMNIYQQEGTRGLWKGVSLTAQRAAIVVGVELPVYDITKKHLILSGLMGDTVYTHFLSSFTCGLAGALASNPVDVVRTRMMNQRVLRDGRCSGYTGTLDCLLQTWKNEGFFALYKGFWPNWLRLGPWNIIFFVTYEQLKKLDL
UniProt P78381: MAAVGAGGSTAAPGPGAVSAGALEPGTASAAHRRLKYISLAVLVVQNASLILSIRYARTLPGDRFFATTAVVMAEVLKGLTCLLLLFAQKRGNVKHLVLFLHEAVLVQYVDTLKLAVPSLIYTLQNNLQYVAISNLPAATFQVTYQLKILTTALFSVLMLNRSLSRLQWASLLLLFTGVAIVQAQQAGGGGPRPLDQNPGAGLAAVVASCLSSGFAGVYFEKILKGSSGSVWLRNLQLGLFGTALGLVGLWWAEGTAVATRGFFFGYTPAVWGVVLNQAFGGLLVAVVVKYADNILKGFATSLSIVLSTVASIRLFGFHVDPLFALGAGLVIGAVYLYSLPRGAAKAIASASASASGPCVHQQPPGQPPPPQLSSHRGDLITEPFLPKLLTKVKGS

Tests used:
Test in all cases: log2 fold change, soluble protein after heating vs DMSO (PISA); higher = thermal stabilisation; K562 cells, 10 uM, 30 min; active = over 0.2 and 3.5 SD of the protein, either way, in both replicates (recomputed)
[1] = compound: CC1=C(C=C(C=C1)NC(=O)C2=CC(=CC=C2)C(C)(C)C#N)NC3=CC4=C(C=C3)N=CN(C4=O)C
Method in brief: (§1)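 K562 cells (2×10^6 cells/mL) were treated with 10 μM compound for 30 min, and aliquots were heated for 3 min over 48°C-58°C. Pooled aliquots were extracted in PBS with 0.5% NP-40 at 4°C, and the supernatant after 21,000xg for 90 min was measured by TMTpro 16plex LC-MS/MS with channel sums equalised. Reported thermal stability, relative to control samples and from duplicates, is a log2 fold change.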

[2] = compound: CC1=C(C=C(C=C1)NC(=O)C2=CC(=CC=C2)N(C)C)NC(=O)C3=CC=C(C=C3)O
Method in brief: as §1

[3] = compound: CC1=CC=C(C=C1)SC2=C3C=C(SC3=CN=C2)C(=O)N
Method in brief: as §1

[4] = compound: CC1=NC(=CC=C1)C2=C(N=C(N2)C(C)(C)C)C3=CC4=NC=CN=C4C=C3
Method in brief: as §1

Nexturastat A = compound: CCCCN(Cc1ccc(C(=O)NO)cc1)C(=O)Nc1ccccc1 [Nexturastat A]
Method in brief: as §1

vemurafenib = compound: CCCS(=O)(=O)Nc1ccc(F)c(C(=O)c2c[nH]c3ncc(-c4ccc(Cl)cc4)cc23)c1F [vemurafenib]
Method in brief: as §1

[5] = compound: CCCS(=O)(=O)Nc1ccc(F)c(C(=O)c2c[nH]c3ncc(Cl)cc23)c1F
Method in brief: as §1

[6] = compound: CCCc1cc(C)[nH]c(=O)c1CNC(=O)c1cc(-c2ccnc(N3CCN(C)CC3)c2)cc2c1cnn2C(C)C
Method in brief: as §1

givinostat = compound: CCN(CC)Cc1ccc2cc(COC(=O)Nc3ccc(C(=O)NO)cc3)ccc2c1 [givinostat]
Method in brief: as §1

barasertib = compound: CCN(CCCOc1ccc2c(Nc3cc(CC(=O)Nc4cccc(F)c4)[nH]n3)ncnc2c1)CCOP(=O)(O)O [barasertib]
Method in brief: as §1

[7] = compound: CC[C@@H]1C(=O)N(C)c2cnc(Nc3ccc(C(=O)NC4CCN(C)CC4)cc3OC)nc2N1C1CCCC1
Method in brief: as §1

volasertib = compound: CC[C@@H]1C(=O)N(C)c2cnc(Nc3ccc(C(=O)N[C@H]4CC[C@H](N5CCN(CC6CC6)CC5)CC4)cc3OC)nc2N1C(C)C [volasertib]
Method in brief: as §1

[8] = compound: CC[C@H](C)N1C=C(C2=C(C=C(C=C21)C3=CN=C(C=C3)N4CCNCC4)C(=O)NCC5=C(C=C(NC5=O)C)C)C
Method in brief: as §1

epoxomicin = compound: CC[C@H](C)[C@@H](C(=O)N[C@@H]([C@@H](C)O)C(=O)N[C@@H](CC(C)C)C(=O)[C@]1(CO1)C)NC(=O)[C@H]([C@@H](C)CC)N(C)C(=O)C [epoxomicin]
Method in brief: as §1

[9] = compound: CCn1cc(-c2ccnc3[nH]c(-c4cccc(CN(C)C)c4)cc23)c(-c2ccc(NC(=O)N(C)C)cc2)n1
Method in brief: as §1

[10] = compound: CN(C)CC(=O)Nc1ccc2[nH]c(=O)c3ccccc3c2c1
Method in brief: as §1

[11] = compound: CN1C2=C(C3=C1C(=O)N(N=C3)CC4=CC(=CC=C4)N)SC(=C2)S(=O)C
Method in brief: as §1

[12] = compound: CN1CCC(CNc2ccc3ncc(-c4cccc(OC(F)(F)F)c4)n3n2)CC1
Method in brief: as §1

[13] = compound: CCn1c(C(=O)N(C2CC2)C2CC2)cc2c3c(ncn3C)c(Nc3cc(C)n(C)n3)nc21
Method in brief: as §1

rosiglitazone = compound: CN(CCOC1=CC=C(C=C1)C[C@H]2C(=O)NC(=O)S2)C3=CC=CC=N3 (racemic) [rosiglitazone]
Method in brief: as §1

Measured: log2 fold change

SLC25A38 (UniProt Q96DW6)
inactive: [1] 0.075 | [2] -0.011 | [3] -0.047 | [4] 0.076 | Nexturastat A -0.012 | vemurafenib -0.059 | [5] -0.019 | [6] -0.145 | givinostat -0.004 | barasertib 0.014 | [7] 0.013 | volasertib 0.009 | [8] -0.002 | epoxomicin -0.025 | [9] 0 | [10] -0.02 | [11] -0.017 | [12] -0.048

SLC25A36 (UniProt Q96CQ1)
inactive: [1] 0.044 | [2] 0.008 | [3] -0.172 | [4] -0.048 | Nexturastat A 0.016 | [5] 0.016 | [6] -0.067 | givinostat 0.115 | barasertib -0.011 | [7] -0.133 | volasertib 0.059 | [8] 0.045 | epoxomicin 0.026 | [9] -0.135 | [10] -0.217 | [11] 0.02 | [12] 0.046
active: vemurafenib -0.297

SLC19A2 (UniProt O60779)
inactive: [1] 0.163 | [2] -0.077 | [3] 0.285 | [4] -0.176 | Nexturastat A 0.388 | vemurafenib 0.027 | [5] -0.009 | givinostat 0.026 | [7] -0.068 | volasertib -0.316 | [8] -0.05 | epoxomicin -0.377 | [13] 0.179 | [10] 0.095 | [11] 0

SLC17A5 (UniProt Q9NRA2)
inactive: [1] 0.121 | [2] -0.121 | [3] -0.167 | [4] 0.082 | [5] 0.01 | givinostat 0.043 | [7] 0.145 | volasertib 0.027 | [13] -0.024

SLC2A4 (UniProt P14672)
inactive: [1] 0.033 | [2] -0.006 | [3] 0.083 | [5] 0.122 | [6] -0.04 | givinostat -0.018 | barasertib -0.032 | [7] 0.137 | volasertib 0.194 | [8] -0.011 | [13] 0.169 | [9] -0.083 | rosiglitazone -0.096 | [12] -0.044

SLC25A23 isoform 3 (UniProt Q9BV35)
inactive: [1] -0.04 | [2] 0.12 | [3] 0.022 | [4] -0.002 | vemurafenib -0.025 | [5] -0.005 | [6] 0.129 | givinostat 0.071 | barasertib 0.084 | [7] -0.024 | volasertib 0.124 | [8] 0 | [13] -0.074 | [9] 0.026 | [10] 0.029 | rosiglitazone 0.237 | [11] 0.023 | [12] 0.026

SLC29A3 (UniProt Q9BZD2)
inactive: [1] 0.005 | [2] -0.023 | [3] 0.089 | [4] 0 | Nexturastat A 0.124 | vemurafenib -0.097 | [5] -0.128 | [6] 0.017 | givinostat 0.005 | barasertib -0.016 | [7] 0.171 | volasertib 0.007 | [8] 0.05 | epoxomicin -0.048 | [10] 0.002 | [11] -0.161

SLC25A39 (UniProt Q9BZJ4)
inactive: [1] -0.029 | [2] 0.011 | [3] 0.207 | [4] 0.129 | Nexturastat A -0.037 | vemurafenib -0.019 | [5] -0.048 | [6] -0.133 | givinostat -0.092 | barasertib 0.088 | [7] 0.029 | volasertib -0.06 | [8] 0.087 | epoxomicin 0.081 | [9] -0.12 | [10] 0.06 | [11] 0.012
active: [12] -0.82

SLC38A2 (UniProt Q96QD8)
inactive: [1] 0.118 | [2] 0.026 | [3] 0.067 | [4] 0.062 | Nexturastat A -0.133 | vemurafenib 0.032 | [5] 0.096 | [6] -0.107 | givinostat -0.014 | barasertib -0.039 | [7] 0.035 | volasertib 0.004 | [8] -0.091 | epoxomicin -0.078 | [10] -0.022 | [11] -0.1

SLC35A1 (UniProt P78382)
active: vemurafenib 0.382
inactive: [1] -0.027 | [2] 0 | [3] -0.045 | [4] 0.06 | Nexturastat A -0.037 | [5] 0 | [6] -0.07 | givinostat -0.024 | barasertib -0.05 | [7] 0.148 | volasertib 0.118 | [8] -0.034 | epoxomicin 0.018 | [10] -0.056 | [11] -0.191

SLC39A3 (UniProt Q9BRY0)
inactive: [1] 0.038 | [2] -0.048 | [3] 0.059 | Nexturastat A -0.151 | vemurafenib 0.017 | [5] 0.055 | [6] -0.122 | givinostat -0.023 | barasertib -0.029 | [7] 0.082 | volasertib -0.015 | [8] -0.095 | epoxomicin -0.099 | [13] 0.114 | [9] 0.073 | [10] 0.058 | rosiglitazone 0.043 | [11] -0.017 | [12] 0.056

SLC25A26 (UniProt Q70HW3)
inactive: [1] -0.017 | [2] 0.145 | [4] 0.09 | Nexturastat A -0.102 | vemurafenib 0.005 | [6] -0.09 | givinostat -0.019 | barasertib 0.024 | [7] 0.177 | [8] -0.04 | epoxomicin -0.024 | [13] -0.001 | [9] 0.082 | [10] 0.085 | rosiglitazone 0.003 | [11] -0.111 | [12] 0.168

SLC3A2 (UniProt F5H867)
inactive: [1] -0.127 | [3] -0.158 | Nexturastat A -0.021 | [5] -0.241 | [6] -0.077 | givinostat -0.025 | barasertib -0.019 | volasertib -0.01 | [8] 0.263 | epoxomicin -0.179 | [13] -0.062 | [9] 0.05 | rosiglitazone 0.163 | [11] -0.023 | [12] 0.004

SLC6A9 (UniProt P48067)
inactive: [1] 0.071 | [2] 0.014 | [3] -0.016 | [4] -0.091 | vemurafenib -0.014 | [5] -0.033 | [6] -0.018 | givinostat -0.059 | barasertib 0.023 | [7] 0.044 | volasertib -0.054 | [8] 0.11 | [13] 0.021 | [9] -0.04 | [10] 0.046 | rosiglitazone 0.084 | [11] -0.093 | [12] 0.117

SLC27A1 (UniProt Q6PCB7)
inactive: [1] -0.186 | [2] 0.036 | [3] -0.046 | [4] 0.12 | Nexturastat A -0.061 | vemurafenib -0.109 | [5] -0.008 | [6] -0.01 | givinostat 0.049 | barasertib 0.043 | [8] 0.022 | epoxomicin -0.021 | [10] 0.008 | [11] -0.072
active: volasertib -0.639

SLC44A2 isoform 2 (UniProt Q8IWA5)
inactive: [1] 0.084 | [2] -0.033 | [4] -0.024 | Nexturastat A 0.05 | vemurafenib 0.038 | [6] -0.029 | givinostat -0.027 | barasertib -0.012 | [7] 0.2 | [8] 0 | epoxomicin 0.053 | [9] -0.105 | [10] -0.048 | [11] -0.154 | [12] 0.259

Taken from above (2 entries):
SLC38A2 (UniProt Q96QD8)
inactive: [1] 0.118 | [2] 0.026 | [3] 0.067 | [4] 0.062 | Nexturastat A -0.133 | vemurafenib 0.032 | [5] 0.096 | [6] -0.107 | givinostat -0.014 | barasertib -0.039 | [7] 0.035 | volasertib 0.004 | [8] -0.091 | epoxomicin -0.078 | [10] -0.022 | [11] -0.1

SLC35A1 (UniProt P78382)
active: vemurafenib 0.382
inactive: [1] -0.027 | [2] 0 | [3] -0.045 | [4] 0.06 | Nexturastat A -0.037 | [5] 0 | [6] -0.07 | givinostat -0.024 | barasertib -0.05 | [7] 0.148 | volasertib 0.118 | [8] -0.034 | epoxomicin 0.018 | [10] -0.056 | [11] -0.191

Continuation.

SLC25A30 (UniProt Q5SVS4)
inactive: [1] -0.059 | [2] -0.082 | [3] -0.197 | [4] -0.126 | vemurafenib -0.013 | [5] -0.015 | givinostat -0.101 | [7] 0.039 | volasertib 0.014 | [8] -0.045 | [13] 0.009 | [9] 0.003 | [10] -0.004 | [11] -0.116 | [12] 0.038

SLC35A2 isoform 4 (UniProt P78381)
inactive: [1] 0.031 | [2] 0.062 | [3] 0.108 | [4] -0.028 | Nexturastat A -0.095 | vemurafenib -0.105 | [5] -0.001 | [6] -0.173 | barasertib -0.014 | [7] -0.021 | volasertib 0.035 | [8] 0.006 | epoxomicin -0.098 | [9] 0.001 | [10] -0.064 | rosiglitazone 0.012 | [11] -0.14 | [12] 0.179

SLC1A5 (UniProt Q15758)
active: [12] 0.226
inactive: [1] 0.007 | [2] 0.002 | [3] 0.019 | [4] -0.01 | Nexturastat A -0.053 | vemurafenib -0.006 | [5] 0.012 | [6] -0.01 | givinostat -0.022 | barasertib -0.04 | [7] 0.095 | volasertib 0.027 | [8] -0.043 | epoxomicin -0.001 | [9] -0.014 | [10] -0.02 | [11] -0.114
